# The list shows a part of the results.
# Amino acid sequences for entries named in this document (tags omitted). A change or cut given only in a name is not applied to a line headed by its entry.
# UniProt Q6P1N9: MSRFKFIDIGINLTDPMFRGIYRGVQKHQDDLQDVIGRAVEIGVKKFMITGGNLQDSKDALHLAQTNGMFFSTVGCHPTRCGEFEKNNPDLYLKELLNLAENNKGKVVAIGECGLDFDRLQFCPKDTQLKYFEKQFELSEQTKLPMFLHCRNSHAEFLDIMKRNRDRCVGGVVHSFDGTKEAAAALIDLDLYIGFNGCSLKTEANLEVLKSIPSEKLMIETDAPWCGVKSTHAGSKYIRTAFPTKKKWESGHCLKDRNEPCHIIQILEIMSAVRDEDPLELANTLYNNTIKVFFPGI
# UniProt Q9NVG8: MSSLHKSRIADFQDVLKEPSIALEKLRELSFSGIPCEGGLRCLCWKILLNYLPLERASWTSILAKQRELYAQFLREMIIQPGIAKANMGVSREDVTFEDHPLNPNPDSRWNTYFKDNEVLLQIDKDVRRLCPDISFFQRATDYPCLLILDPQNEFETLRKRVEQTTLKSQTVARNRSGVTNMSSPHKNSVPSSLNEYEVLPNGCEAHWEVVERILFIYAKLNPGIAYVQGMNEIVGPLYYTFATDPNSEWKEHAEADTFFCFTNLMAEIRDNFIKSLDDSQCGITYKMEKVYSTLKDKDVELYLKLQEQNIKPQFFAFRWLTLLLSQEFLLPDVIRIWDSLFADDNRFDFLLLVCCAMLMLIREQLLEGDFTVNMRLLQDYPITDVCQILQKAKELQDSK
# UniProt Q66K14, whole entry, looked up: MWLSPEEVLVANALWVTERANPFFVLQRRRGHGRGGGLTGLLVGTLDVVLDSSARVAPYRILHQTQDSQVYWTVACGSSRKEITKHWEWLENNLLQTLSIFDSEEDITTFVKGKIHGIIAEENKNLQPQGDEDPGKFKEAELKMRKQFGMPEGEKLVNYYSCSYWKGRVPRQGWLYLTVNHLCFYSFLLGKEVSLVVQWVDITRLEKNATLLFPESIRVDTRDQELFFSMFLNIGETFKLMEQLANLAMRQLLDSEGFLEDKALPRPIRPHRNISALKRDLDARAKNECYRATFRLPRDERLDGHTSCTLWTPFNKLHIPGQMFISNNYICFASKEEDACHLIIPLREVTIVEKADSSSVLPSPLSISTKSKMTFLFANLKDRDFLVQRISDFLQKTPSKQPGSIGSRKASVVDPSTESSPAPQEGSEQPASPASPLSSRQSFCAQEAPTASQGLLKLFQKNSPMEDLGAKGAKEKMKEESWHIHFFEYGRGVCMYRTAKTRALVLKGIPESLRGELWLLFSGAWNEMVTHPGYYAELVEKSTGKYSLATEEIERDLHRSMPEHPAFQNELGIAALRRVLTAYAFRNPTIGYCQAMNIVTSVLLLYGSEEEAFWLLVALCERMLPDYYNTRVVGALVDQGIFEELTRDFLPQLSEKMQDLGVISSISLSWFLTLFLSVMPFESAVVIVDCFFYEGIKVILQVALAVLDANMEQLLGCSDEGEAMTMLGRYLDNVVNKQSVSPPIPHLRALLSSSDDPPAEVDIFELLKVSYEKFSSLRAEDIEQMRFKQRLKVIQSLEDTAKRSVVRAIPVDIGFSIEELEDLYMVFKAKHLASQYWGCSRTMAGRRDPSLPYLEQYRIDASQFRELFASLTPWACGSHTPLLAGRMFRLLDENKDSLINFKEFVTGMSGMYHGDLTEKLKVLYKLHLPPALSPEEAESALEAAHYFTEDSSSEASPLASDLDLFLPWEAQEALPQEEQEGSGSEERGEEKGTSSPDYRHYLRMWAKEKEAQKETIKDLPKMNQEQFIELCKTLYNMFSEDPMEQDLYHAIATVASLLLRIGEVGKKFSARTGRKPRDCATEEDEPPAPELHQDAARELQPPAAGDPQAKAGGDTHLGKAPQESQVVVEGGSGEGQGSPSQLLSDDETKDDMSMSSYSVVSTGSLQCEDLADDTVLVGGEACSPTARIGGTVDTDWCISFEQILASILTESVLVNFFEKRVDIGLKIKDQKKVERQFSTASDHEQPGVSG
# UniProt Q86TI0: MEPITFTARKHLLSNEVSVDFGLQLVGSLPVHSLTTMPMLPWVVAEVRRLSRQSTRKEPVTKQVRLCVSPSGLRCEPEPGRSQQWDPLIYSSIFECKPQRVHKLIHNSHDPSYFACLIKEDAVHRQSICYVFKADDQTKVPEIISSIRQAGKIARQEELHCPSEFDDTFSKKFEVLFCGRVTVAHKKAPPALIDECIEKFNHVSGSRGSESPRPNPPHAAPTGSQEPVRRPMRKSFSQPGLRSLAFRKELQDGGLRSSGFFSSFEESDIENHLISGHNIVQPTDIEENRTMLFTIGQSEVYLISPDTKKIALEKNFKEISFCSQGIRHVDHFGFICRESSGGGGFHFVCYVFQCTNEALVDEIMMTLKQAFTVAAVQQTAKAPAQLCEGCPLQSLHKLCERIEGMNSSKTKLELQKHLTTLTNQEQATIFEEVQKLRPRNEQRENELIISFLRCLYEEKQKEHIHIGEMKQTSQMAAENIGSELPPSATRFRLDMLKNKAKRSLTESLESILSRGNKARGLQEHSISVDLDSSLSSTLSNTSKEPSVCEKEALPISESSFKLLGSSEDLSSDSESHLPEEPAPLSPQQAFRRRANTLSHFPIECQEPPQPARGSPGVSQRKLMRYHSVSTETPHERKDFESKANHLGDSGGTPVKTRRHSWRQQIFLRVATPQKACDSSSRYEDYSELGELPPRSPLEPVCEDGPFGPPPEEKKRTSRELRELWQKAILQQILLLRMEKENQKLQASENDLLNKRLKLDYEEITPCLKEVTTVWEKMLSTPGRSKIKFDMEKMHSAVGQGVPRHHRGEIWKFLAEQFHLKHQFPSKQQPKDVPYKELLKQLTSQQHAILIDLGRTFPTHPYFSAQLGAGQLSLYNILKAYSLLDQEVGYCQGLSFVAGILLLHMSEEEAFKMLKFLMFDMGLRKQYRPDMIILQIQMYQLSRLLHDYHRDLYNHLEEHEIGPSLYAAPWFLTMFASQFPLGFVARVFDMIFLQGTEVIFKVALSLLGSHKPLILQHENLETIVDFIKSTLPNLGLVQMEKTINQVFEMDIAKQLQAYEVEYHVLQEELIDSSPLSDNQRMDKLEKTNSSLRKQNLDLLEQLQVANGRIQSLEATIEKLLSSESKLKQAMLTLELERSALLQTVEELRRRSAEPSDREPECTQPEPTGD
# UniProt Q7L7X3: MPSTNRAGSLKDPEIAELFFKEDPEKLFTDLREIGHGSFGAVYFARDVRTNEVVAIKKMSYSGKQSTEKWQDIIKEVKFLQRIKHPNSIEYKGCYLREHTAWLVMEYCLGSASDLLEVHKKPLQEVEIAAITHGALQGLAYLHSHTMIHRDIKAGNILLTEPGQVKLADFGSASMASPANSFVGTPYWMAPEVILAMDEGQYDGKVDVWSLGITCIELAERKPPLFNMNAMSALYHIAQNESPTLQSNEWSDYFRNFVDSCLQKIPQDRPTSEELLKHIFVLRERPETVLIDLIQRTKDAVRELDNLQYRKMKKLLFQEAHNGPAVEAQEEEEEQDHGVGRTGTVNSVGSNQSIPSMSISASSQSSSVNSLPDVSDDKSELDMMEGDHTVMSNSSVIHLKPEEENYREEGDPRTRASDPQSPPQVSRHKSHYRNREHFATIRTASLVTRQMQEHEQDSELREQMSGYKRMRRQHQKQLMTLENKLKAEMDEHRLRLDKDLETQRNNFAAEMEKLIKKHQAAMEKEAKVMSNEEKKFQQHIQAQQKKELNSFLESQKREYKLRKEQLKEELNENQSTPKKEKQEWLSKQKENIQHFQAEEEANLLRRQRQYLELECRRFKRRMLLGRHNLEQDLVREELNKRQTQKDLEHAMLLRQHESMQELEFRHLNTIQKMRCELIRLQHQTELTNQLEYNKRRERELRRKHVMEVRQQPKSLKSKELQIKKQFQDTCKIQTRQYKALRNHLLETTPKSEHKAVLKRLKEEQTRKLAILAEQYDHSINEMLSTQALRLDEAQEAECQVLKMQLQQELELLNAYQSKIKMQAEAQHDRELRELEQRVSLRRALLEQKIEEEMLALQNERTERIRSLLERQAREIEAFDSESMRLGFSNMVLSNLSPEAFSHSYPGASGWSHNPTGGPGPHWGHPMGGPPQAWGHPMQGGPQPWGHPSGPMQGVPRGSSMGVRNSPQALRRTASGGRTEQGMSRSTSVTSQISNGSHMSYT
# UniProt Q6P1X5, whole entry, looked up: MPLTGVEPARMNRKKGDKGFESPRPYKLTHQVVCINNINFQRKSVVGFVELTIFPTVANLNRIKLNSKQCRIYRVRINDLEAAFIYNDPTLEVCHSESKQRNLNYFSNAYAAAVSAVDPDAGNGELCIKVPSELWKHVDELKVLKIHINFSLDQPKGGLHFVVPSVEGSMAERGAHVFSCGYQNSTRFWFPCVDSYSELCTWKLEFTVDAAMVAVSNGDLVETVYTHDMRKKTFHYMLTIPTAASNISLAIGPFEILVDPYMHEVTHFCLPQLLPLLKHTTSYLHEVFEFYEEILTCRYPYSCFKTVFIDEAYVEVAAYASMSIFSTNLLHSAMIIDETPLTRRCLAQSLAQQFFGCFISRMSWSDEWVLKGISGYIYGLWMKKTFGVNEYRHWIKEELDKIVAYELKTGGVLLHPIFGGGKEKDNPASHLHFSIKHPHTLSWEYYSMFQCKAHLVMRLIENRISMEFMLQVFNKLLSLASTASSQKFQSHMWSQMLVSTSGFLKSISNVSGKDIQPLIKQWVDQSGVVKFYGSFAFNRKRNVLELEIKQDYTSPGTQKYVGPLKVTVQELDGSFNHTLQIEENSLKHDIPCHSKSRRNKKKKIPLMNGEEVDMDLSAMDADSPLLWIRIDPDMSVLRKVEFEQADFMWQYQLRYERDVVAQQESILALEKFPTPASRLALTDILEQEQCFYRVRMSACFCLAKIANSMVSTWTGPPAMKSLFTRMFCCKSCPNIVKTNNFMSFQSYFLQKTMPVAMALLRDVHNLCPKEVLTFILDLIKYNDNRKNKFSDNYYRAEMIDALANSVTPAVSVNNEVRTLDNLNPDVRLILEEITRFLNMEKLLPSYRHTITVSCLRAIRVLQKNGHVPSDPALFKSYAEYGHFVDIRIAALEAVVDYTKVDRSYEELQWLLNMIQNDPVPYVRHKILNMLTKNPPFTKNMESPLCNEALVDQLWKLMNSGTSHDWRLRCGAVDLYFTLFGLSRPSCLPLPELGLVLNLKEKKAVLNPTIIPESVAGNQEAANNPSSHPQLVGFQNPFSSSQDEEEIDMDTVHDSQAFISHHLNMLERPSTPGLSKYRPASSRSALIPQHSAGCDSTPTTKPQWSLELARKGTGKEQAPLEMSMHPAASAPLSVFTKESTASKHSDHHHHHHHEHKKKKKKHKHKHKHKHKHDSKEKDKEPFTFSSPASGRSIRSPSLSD
# UniProt Q15542, whole entry, looked up: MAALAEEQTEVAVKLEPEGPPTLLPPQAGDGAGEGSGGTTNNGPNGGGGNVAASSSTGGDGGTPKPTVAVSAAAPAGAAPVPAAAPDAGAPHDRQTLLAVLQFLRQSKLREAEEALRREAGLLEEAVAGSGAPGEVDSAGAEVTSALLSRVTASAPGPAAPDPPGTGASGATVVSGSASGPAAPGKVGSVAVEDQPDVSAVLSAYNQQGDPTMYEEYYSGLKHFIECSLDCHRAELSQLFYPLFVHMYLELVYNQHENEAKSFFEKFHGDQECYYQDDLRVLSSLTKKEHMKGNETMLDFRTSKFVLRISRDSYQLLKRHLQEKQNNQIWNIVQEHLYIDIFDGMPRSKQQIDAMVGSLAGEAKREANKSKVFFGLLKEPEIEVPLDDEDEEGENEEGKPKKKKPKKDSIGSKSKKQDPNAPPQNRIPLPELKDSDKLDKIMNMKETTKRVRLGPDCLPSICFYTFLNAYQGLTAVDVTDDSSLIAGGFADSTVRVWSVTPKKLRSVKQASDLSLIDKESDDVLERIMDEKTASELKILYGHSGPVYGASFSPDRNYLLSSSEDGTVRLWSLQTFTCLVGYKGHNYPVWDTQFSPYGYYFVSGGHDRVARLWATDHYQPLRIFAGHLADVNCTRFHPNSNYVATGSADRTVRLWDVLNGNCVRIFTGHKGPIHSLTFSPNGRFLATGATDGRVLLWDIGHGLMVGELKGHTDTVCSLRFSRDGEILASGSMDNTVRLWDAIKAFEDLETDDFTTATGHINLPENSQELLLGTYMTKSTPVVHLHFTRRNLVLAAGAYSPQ
# UniProt Q96BN2: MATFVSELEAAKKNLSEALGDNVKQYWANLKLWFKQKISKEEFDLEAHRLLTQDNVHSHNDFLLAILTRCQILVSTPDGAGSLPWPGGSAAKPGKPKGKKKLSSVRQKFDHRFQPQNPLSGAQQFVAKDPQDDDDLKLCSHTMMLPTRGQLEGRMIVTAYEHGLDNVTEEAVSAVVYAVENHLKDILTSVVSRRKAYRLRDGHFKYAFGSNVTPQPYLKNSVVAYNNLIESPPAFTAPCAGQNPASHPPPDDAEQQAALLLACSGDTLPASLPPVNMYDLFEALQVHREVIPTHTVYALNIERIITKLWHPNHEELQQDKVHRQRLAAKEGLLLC
# Compound: Cc1cc(ccc1-c1ccccc1)C(=O)N1CCCN(CC1)C(=O)CCl [compound 10]
# Assay: probe-labelled cysteine peptide fold change vs DMSO (competition) (log2 fold change); higher = less target engagement (more negative = stronger competition)
# Details: THP-1, incubation time: 4 h
# 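Note: competitive profiling in live THP-1 cells: cysteine peptides tagged with an iodoacetamide desthiobiotin (IA-DTB) probe, intensity after compound treatment relative to DMSO-treated cells.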
Target,probe-labelled cysteine peptide fold change (10 µM),probe-labelled cysteine peptide fold change (50 µM)
TATDN1_Q6P1N9_168_CVGGVVHSFDGTK (UniProt Q6P1N9),0.103,-0.202
SYTL1_Q8IYJ3_290_VHVIQCQGLAAAR (UniProt Q8IYJ3),-0.00544,0.25
SZT2_Q5T011_1460_TVPSNPHYFFYCPPSSR (UniProt Q5T011),0.093,0.233
SZT2_Q5T011_865_HTCVVQYILFPPHSTSTK (UniProt Q5T011),-0.141,0.0925
TBC1D4_O60343_74_SQKPEAGGCGAPAAR (UniProt O60343),-0.579,-1.59
TARDBP_Q13148_39_VTEDENDEPIEIPSEDDGTVLLSTVTAQFPGACGLR (UniProt Q13148),0.0296,0.118
TBC1D13_Q9NVG8_261_EHAEADTFFCFTNLMAEIR (UniProt Q9NVG8),0.226,0.151
TBCD_Q9BTW9_234_MAEFLDWSLCNLAR (UniProt Q9BTW9),0.0778,-0.148
TBC1D9B_Q66K14_162_LVNYYSCSYWK (UniProt Q66K14),0.216,0.206
TARS_P26639_254+261_CGPLIDLCR (UniProt P26639),-0.119,-0.181
TBP_P20226_221_MVCTGAK (UniProt P20226),-0.146,-0.0931
TACC1_O75410_467_LITSGCK (UniProt O75410),-0.632,-0.628
TACC1_O75410_219_AGNSCPELVPSR (UniProt O75410),-0.318,-0.269
TBCC_Q15814_284_AIVEDCSGIQFAPYTWSYPEIDK (UniProt Q15814),0.309,0.375
TBL2_Q9Y4P3_240_GQVLSTINTNQMNNTHAAVSPCGR (UniProt Q9Y4P3),-0.0462,0.0804
TAF5L_O75529_431_IYAGHLADVDCVK (UniProt O75529),-0.0188,0.0298
TBC1D1_Q86TI0_390_APAQLCEGCPLQSLHK (UniProt Q86TI0),0.147,0.00484
TBC1D8B_Q0IIM8_840_HHDPSLPYLEQYQIDCQQFR (UniProt Q0IIM8),0.15,0.682
TARS_P26639_261_CGPLIDLCR (UniProt P26639),0.0971,0.248
TBCD_Q9BTW9_681_QAVCVLIEK (UniProt Q9BTW9),0.0814,0.262
TAPT1_Q6NXT6_562_DLLEIDRFTICGNRID (UniProt Q6NXT6),-0.412,-0.716

Target,probe-labelled cysteine peptide fold change (10 µM),probe-labelled cysteine peptide fold change (50 µM)
SYNPO2_Q9UMS6_290_VEVILDCSDR (UniProt Q9UMS6),-0.3,-0.237
TBL3_Q12788_413_AGQVMCVAQGSGHTHSVGTVCCSR (UniProt Q12788),0.169,0.277
TAOK1_Q7L7X3_730_QFQDTCK (UniProt Q7L7X3),0.127,-0.114
TARS_P26639_413_ELFALKPMNCPGHCLMFDHRPR (UniProt P26639),0.061,-0.158
TARDBP_Q13148_50_YRNPVSQCMR (UniProt Q13148),-0.0323,-0.0275
TBC1D23_Q9NUY8_86_DCLQFIDQLSVPEEK (UniProt Q9NUY8),-0.0219,0.113
TBCD_Q9BTW9_420_AWHGGCLALAELGRR (UniProt Q9BTW9),-0.0255,-0.156
TAOK1_Q7L7X3_798_LDEAQEAECQVLK (UniProt Q7L7X3),0.0654,0.0138
TBC1D1_Q86TI0_454_CLYEEK (UniProt Q86TI0),-0.141,-0.399
TBPL1_P62380_24_CHLNLR (UniProt P62380),0.00768,0.105
TBCD_Q9BTW9_457_GACSVGTNVR (UniProt Q9BTW9),-0.073,0.00804
TBL3_Q12788_298_VWEAASGQCVYTQAQPPGPGQELTHCTLAHTAGVVLTATADHNLLLYEAR (UniProt Q12788),-0.0383,-0.0693
TCEA1_P23193_291_SADEPMTTFVVCNECGNR (UniProt P23193),0.098,-0.00719
TBL3_Q12788_728_HCHEAQAVLGVLLRR (UniProt Q12788),-0.0536,-0.526
TAF2_Q6P1X5_34_LTHQVVCINNINFQR (UniProt Q6P1X5),-0.181,0.115
TBC1D15_Q8TC07_184_YVVLCESPQDKR (UniProt Q8TC07),0.0621,-0.0543
SYNE3_Q6ZMZ3_51_ICQLEPEGR (UniProt Q6ZMZ3),-0.274,-0.146
TAF2_Q6P1X5_94_INDLEAAFIYNDPTLEVCHSESK (UniProt Q6P1X5),-0.103,0.0497
TCEA1_P23193_294_SADEPMTTFVVCNECGNR (UniProt P23193),0.0781,0.149
TARS2_Q9BW92_233_VTGPTATVYGCGTLVDLCQGPHLR (UniProt Q9BW92),0.287,-0.223
TAF4_O00268_1022_KVDCPGPGSGAEGSGPGSVVPGSSGVGTPR (UniProt O00268),-0.0723,-0.344

Target,probe-labelled cysteine peptide fold change (10 µM),probe-labelled cysteine peptide fold change (50 µM)
TANK_Q92844_218_GLCRDEEDTSFESLSK (UniProt Q92844),-0.39,-0.236
TANC1_Q9C0D5_1611_LQCGENGPAHPLPSK (UniProt Q9C0D5),-0.114,-0.165
TACC1_O75410_174_AAHGCVTAVSGK (UniProt O75410),-0.225,-0.242
TBCD_Q9BTW9_269_EDCLPYAATVLR (UniProt Q9BTW9),-0.199,-0.0376
TARSL2_A2RTX5_637_YHQCATIQLDFQLPIR (UniProt A2RTX5),0.00987,0.158
TATDN1_Q6P1N9_150_LPMFLHCR (UniProt Q6P1N9),-0.0457,-0.267
TBC1D9B_Q66K14_839_HLASQYWGCSR (UniProt Q66K14),0.00106,-0.626
SYNE1_Q8NF91_6460_NLFSQAFPENGDNRDVIEDTLGCLLGR (UniProt Q8NF91),0.0214,0.236
TBC1D13_Q9NVG8_204_NSVPSSLNEYEVLPNGCEAHWEVVER (UniProt Q9NVG8),0.261,0.262
TARS_P26639_467_RFQQDDAHIFCAMEQIEDEIK (UniProt P26639),0.126,0.326
TBL2_Q9Y4P3_95_SHSGNISCMDFSSNGK (UniProt Q9Y4P3),-0.0987,0.0352
TAF2_Q6P1X5_701_MSACFCLAK (UniProt Q6P1X5),-0.0214,0.0218
TBL3_Q12788_511_LWALPQCQLLGVFSGHR (UniProt Q12788),-0.251,-0.0639
TBC1D22A_Q8WUA7_151_SVSESHTSCPAESASDAAPLQR (UniProt Q8WUA7),-0.431,-0.272
TBC1D22B_Q9NU19_144_NSSDTCLR (UniProt Q9NU19),-0.263,-0.673
TATDN1_Q6P1N9_261_DRNEPCHIIQILEIMSAVR (UniProt Q6P1N9),0.148,0.216
TBC1D9B_Q66K14_876_ELFASLTPWACGSHTPLLAGR (UniProt Q66K14),-0.0144,-0.0551
TCEA1_P23193_271_NCTYTQVQTR (UniProt P23193),0.0737,0.0314
TBC1D2B_Q9UPU7_38_LCGYLQK (UniProt Q9UPU7),-0.25,-0.749
TCAF1_Q9Y4C2_576_IQIGCHTDDLTR (UniProt Q9Y4C2),0.111,-0.0345
TBC1D13_Q9NVG8_145_ATDYPCLLILDPQNEFETLRK (UniProt Q9NVG8),0.00255,-0.376

Target,probe-labelled cysteine peptide fold change (10 µM),probe-labelled cysteine peptide fold change (50 µM)
TBCE_Q15813_371_CEILPEER (UniProt Q15813),-0.191,-0.4
TBC1D15_Q8TC07_184_YVVLCESPQDK (UniProt Q8TC07),0.0735,0.217
TBL1XR1_Q9BZK7_367_WDPTGNLLASCSDDMTLK (UniProt Q9BZK7),0.0895,0.141
TAF1B_Q53T94_326_YLMEVNLPDEMHSLTCHVVK (UniProt Q53T94),0.0813,0.0691
TAP2_Q03519_362_EALEQCR (UniProt Q03519),-0.138,-0.0808
TBC1D10A_Q9BXI6_324_ACQGQYETIER (UniProt Q9BXI6),-0.209,-0.104
TAF5_Q15542_273_FHGDQECYYQDDLR (UniProt Q15542),-0.184,0.0665
TBC1D1_Q86TI0_604_RANTLSHFPIECQEPPQPAR (UniProt Q86TI0),-0.243,-0.382
TCEAL4_Q96EI5_34_MENEEQPQDERKPEVTCTLEDK (UniProt Q96EI5),0.114,-0.277
SZT2_Q5T011_2019_APLPSDDYAADESCAPR (UniProt Q5T011),-0.457,-0.0896
TAF5_Q15542_632_IFAGHLADVNCTR (UniProt Q15542),0.228,0.44
TARS_P26639_107_TTPYQIACGISQGLADNTVIAK (UniProt P26639),0.0295,0.144
TADA1_Q96BN2_139_LCSHTMMLPTR (UniProt Q96BN2),-0.18,-0.121
TBC1D1_Q86TI0_766_LDYEEITPCLK (UniProt Q86TI0),-0.284,0.103
SZT2_Q5T011_2339_CPVVVDSSSAQNGAPR (UniProt Q5T011),-0.0902,-0.0826
TBL1XR1_Q9BZK7_465_CVHIWNTQTGALVHSYR (UniProt Q9BZK7),0.151,0.312
TALDO1_P37837_250_ALAGCDFLTISPK (UniProt P37837),0.0217,0.0297
TBC1D13_Q9NVG8_145_ATDYPCLLILDPQNEFETLR (UniProt Q9NVG8),-0.0238,0.373
TAPT1_Q6NXT6_562_DLLEIDRFTICGNR (UniProt Q6NXT6),-0.129,-0.0106
TBL3_Q12788_597_NNECVR (UniProt Q12788),0.383,0.285
TANK_Q92844_318_TKPSNLVNTCIR (UniProt Q92844),-0.257,-0.558

# Given as tab-separated lines: entries from further up.
Target	probe-labelled cysteine peptide fold change (10 µM)	probe-labelled cysteine peptide fold change (50 µM)
TARS_P26639_107_TTPYQIACGISQGLADNTVIAK (UniProt P26639)	0.0295	0.144
TADA1_Q96BN2_139_LCSHTMMLPTR (UniProt Q96BN2)	-0.18	-0.121
TBC1D1_Q86TI0_766_LDYEEITPCLK (UniProt Q86TI0)	-0.284	0.103
SZT2_Q5T011_2339_CPVVVDSSSAQNGAPR (UniProt Q5T011)	-0.0902	-0.0826

# Source: the supplement of paper PMC12067093, “Discovery and optimisation of a covalent ligand for TRIM25 and its application to targeted protein ubiquitination” (Chemical Science, 2025)
